Structures can show the parent of a compound that is named as a salt. This is one part of the list. Single values are uncertain here, since repeats match poorly.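 Test system: Schistosoma mansoni schistosomula, roughly 40 per well, imaged in bright field over time and compared with wells given 0.1% DMSO. Distance read-out: the paper calls a drug a hit when its Mahalanobis distance is at least 2.47, three standard deviations above the DMSO control mean. Degeneracy is the share of worms classified opaque.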

The subject of this experiment is Schistosoma mansoni schistosomula. The experiment can be described thus: degeneracy (percent of somules classified as degenerate/opaque); higher = more parasite degeneration/death; extreme values may be limits of the assay. As to conditions: 10 µM; 72 h.
Consider `O=C1Nc2ccc(Cl)cc2C(c2ccccc2Cl)=NC1O` (stereo not given) [Lorazepam], for which the degeneracy is 4.44%.

In the case of `NCc1cccnc1` [Picolamine], the degeneracy was found to be 0%.

`CC(N)Cc1ccc(O)cc1` (stereo not given) [Hydroxyamphetamine Hydrobromide] had a degeneracy of 21.1%.

For the molecule `O=[N+]([O-])C(Br)(CO)CO` [Bronopol], the degeneracy was 100%.

`CN1[C@@H]2C[C@@H](OC(=O)[C@H](CO)c3ccccc3)C[C@H]1[C@@H]1O[C@@H]12` [Scopolamine] had a degeneracy of 10.7%.

On to `CN[C@@H](C)[C@@H](O)c1ccccc1` [Pseudoephedrine], for which the degeneracy is 7.5%.

In turn, `CN1C[C@H](C(=O)N[C@]2(C)O[C@@]3(O)[C@@H]4CCCN4C(=O)[C@H](Cc4ccccc4)N3C2=O)C=C2c3cccc4[nH]cc(c34)C[C@H]21` [Ergotamine] yielded a degeneracy of 0%.

`O=c1n(Cl)c(=O)n(Cl)c(=O)n1Cl` [Symclosene] yielded a degeneracy of 20%.

`C=CCN1CC[C@]23c4c5ccc(O)c4O[C@H]2C(=O)CC[C@@]3(O)[C@H]1C5` [Naloxone Hydrochloride] showed a degeneracy of 10.3%.

As to `C=CCN1CC[C@]23c4c5ccc(O)c4O[C@H]2C(=O)CC[C@@]3(O)[C@H]1C5` [Naloxone], the degeneracy was found to be 3.57%.

`CC[C@@H](C(=O)[C@@H](C)[C@@H](O)[C@H](C)[C@@H]1O[C@@H]([C@@H](CC)C(=O)O)CC[C@@H]1C)[C@H]1O[C@]2(C=C[C@@H](O)[C@]3(CC[C@@](C)([C@H]4CC[C@](O)(CC)[C@H](C)O4)O3)O2)[C@H](C)C[C@@H]1C` [Salinomycin, Sodium]: the degeneracy came to 100%.

Molecule `CCC1(c2ccccc2)C(=O)NC(=O)NC1=O` [Phenobarbital] had a degeneracy of 6.67%.

On to `Cc1cccc(C)c1NC(=O)CN1CCCC1=O` [Nefiracetam], for which the degeneracy stood at 9.09%.

Take `C[C@]12CCC(=O)C=C1C=C[C@@H]1[C@@H]2CC[C@@]2(C)[C@H]1CC[C@@]2(O)CCC(=O)O` [Canrenoic Acid, Potassium Salt]: the degeneracy came to 8.7%.

In turn, `S=C=NCc1ccccc1` [Benzyl Isothiocyanate] displayed a degeneracy of 100%.

Take `O=c1c2ccccc2[se]n1-c1ccccc1` [Ebselen]: the degeneracy stood at 100%.

`CC(=O)O[C@H]1C[C@@H]2CC[C@@H]3[C@H](CC[C@@]4(C)[C@H]3C[C@H]([N+]3(C)CCCCC3)[C@@H]4OC(C)=O)[C@@]2(C)C[C@@H]1[N+]1(C)CCCCC1` [Pancuronium Bromide] returned a degeneracy of 3.85%.

On to `CC1C=CC=CCCC=CC=CC=CC=CC(OC2OC(C)C(O)C(N)C2O)CC2OC(O)(CC(O)C(O)CCC(O)CC(O)CC(O)CC(=O)OC(C)C(C)C1O)CC(O)C2C(=O)O` (stereo not given) [Nystatin], for which the degeneracy came to 4.55%.

`C[C@]12CC[C@H](O)CC1=CC[C@@H]1[C@@H]2CC[C@]2(C)C(=O)CC[C@@H]12` [Prasterone] had a degeneracy of 7.69%.

The molecule `COc1cc2c(c(OC)c1OC)-c1ccc(OC)c(=O)cc1[C@@H](NC(C)=O)CC2` [colchicine] had a degeneracy of 5.26%.

`CC[C@@H](CO)NC(=O)[C@@H]1C=C2c3cccc4c3c(cn4C)C[C@H]2N(C)C1` [Methysergide Maleate]: the degeneracy was found to be 13.6%.

`c1ccc2c(c1)OCC(C1=NCCN1)O2` (stereo not given) [Idazoxan Hydrochloride] showed a degeneracy of 12.9%.

Turning to `CC(C)c1cccc(C(C)C)c1O` [Propofol], the degeneracy was 100%.

Turning to `CN1C[C@H](CNC(=O)OCc2ccccc2)C[C@@H]2c3cccc4c3c(cn4C)C[C@H]21` [Metergoline], the degeneracy stood at 100%.

For `Oc1ccc2c3c1O[C@H]1[C@@H](O)CC[C@@]4(O)[C@@H](C2)N(CC2CCC2)CC[C@]314` [Nalbuphine], the degeneracy turned out to be 16.2%.

As for `NCC1(CC(=O)O)CCCCC1` [Gabapentin], the degeneracy is 3.03%.

`O=[N+]([O-])O[C@H]1CO[C@H]2[C@@H]1OC[C@H]2O[N+](=O)[O-]` [Isosorbide Dinitrate] yielded a degeneracy of 4.17%.

On to `CC(N)C(O)c1ccccc1` (stereo not given) [Phenylpropanolamine], for which the degeneracy amounted to 0%.

As for `CCCCOC(=O)c1ccccc1C(=O)OCCCC` [Dibutyl Phthalate], the degeneracy came out at 6.06%.

As for `O=C(O)c1nn(Cc2ccc(Cl)cc2Cl)c2ccccc12` [Lonidamine], the degeneracy stood at 13.3%.

In the case of `COc1ccc2c(c1OC)C(=O)O[C@@H]2[C@H]1c2cc3c(cc2CCN1C)OCO3` [Hydrastine (1r, 9s)], the degeneracy worked out at 4.17%.

As to `Cc1nnc2n1-c1ccc(Cl)cc1C(c1ccccc1)=NC2` [Alprazolam], the degeneracy was 10.6%.

On to `C[C@@H]1CN([C@H]2CC[C@](C#N)(c3ccc(F)cc3)CC2)CC[C@]1(C(=O)O)c1ccccc1` [Levocabastine hcl], for which the degeneracy worked out at 3.33%.

`CCC1(CC)C(=O)NC(=O)NC1=O` [Barbital] gave a degeneracy of 2.86%.

With `CCC(=O)O[C@H]1CC[C@H]2[C@@H]3CCC4=CC(=O)CC[C@]4(C)[C@H]3CC[C@]12C` [Testosterone Propionate], the degeneracy turned out to be 40.6%.

As to `COc1ccc(OC)c(C(O)C(C)N)c1` (stereo not given) [Methoxamine], the degeneracy amounted to 7.69%.

Molecule `CCCC(C)(COC(N)=O)COC(=O)NC(C)C` (stereo not given) [Carisoprodol] came in with a degeneracy of 7.14%.

With `COC(C)(C)CCC[C@H](C)C/C=C/C(C)=C/C(=O)OC(C)C` [Methoprene (s)], the degeneracy came out at 2.22%.

The molecule `CC(O)CN1CCN(CC(=O)[O-])CCN(CC(=O)[O-])CCN(CC(=O)[O-])CC1.[Gd+3]` (stereo not given) [Gadoteridol] had a degeneracy of 5.13%.

For the molecule `N[C@@H]1C[C@H]1c1ccccc1.N[C@H]1C[C@@H]1c1ccccc1` [Tranylcypromine], the degeneracy amounted to 100%.

With `C#CC(C)(O)CC` (stereo not given) [Meparfylon], the degeneracy turned out to be 0%.

Molecule `CCOP(=S)(OCC)Oc1ccc2c(C)c(Cl)c(=O)oc2c1` [Coumophos] returned a degeneracy of 25%.

Molecule `CCC(=O)O[C@](Cc1ccccc1)(c1ccccc1)[C@H](C)CN(C)C` [Propoxyphene] returned a degeneracy of 2.63%.

Regarding `C=C1C[C@@H]2[C@H](CC[C@]3(C)C(=O)CC[C@@H]23)[C@@]2(C)C=CC(=O)C=C12` [Exemestane], the degeneracy amounted to 100%.

Molecule `CCOc1cc(C=O)ccc1O` [Ethyl Vanillin] gave a degeneracy of 5.71%.

On to `C[C@]12C/C(=C/O)C(=O)C[C@@H]1CC[C@@H]1[C@@H]2CC[C@@]2(C)[C@H]1CC[C@]2(C)O` [Oxymetholone], for which the degeneracy was determined as 6%.

For `CCOP(=S)(OCC)Oc1nc(Cl)c(Cl)cc1Cl` [Chlorpyrifos], the degeneracy stood at 5%.

With `CNC(=O)Oc1ccccc1OC(C)C` [Propoxur], the degeneracy is 5.88%.

For the molecule `CC(=O)NC1CCSC1=O` (stereo not given) [Citiolone], the degeneracy was determined as 13.3%.

With `c1ccc2c(c1)sc1ccccc12` [Dibenzothiophene], the degeneracy came to 5.56%.

The values above are taken from the supplement of paper PMC7752906.
